# Test results as given in patent US20200071759.
# For at least one entry, the source does not settle the construct or the ends of the probe. Negatives hold for the conditions tested.
# Test system: lectin
# Assay: binding assay
# Details: 3'-phosphate on Capture Probe [1]; RCA readout, 10 mM KCl, 37 C; reaction stated specific only to thrombin; purified native protein
sequence,measurement,value
AAAGGAGAACCTCAAGCTCCTTTGGTTGGTG / TGGTTGGAAATTTTTTG,binding result,no binding
